{"source": "the supplement of paper PMC8728848", "experiment_in_all_cases": "glycan array binding signal (z-score within array); higher = stronger binding", "conditions_in_all_cases": "glycan notation: IUPAC condensed, linker removed", "key": {"[1]": {"target": "Gal(b1-3)GlcNAc(b1-3)Gal(b1-4)GlcNAc(b1-2)[Gal(b1-3)GlcNAc(b1-3)Gal(b1-4)GlcNAc(b1-6)]Man(a1-6)[Gal(b1-3)GlcNAc(b1-3)Gal(b1-4)GlcNAc(b1-2)Man(a1-3)]Man(b1-4)GlcNAc(b1-4)[Fuc(a1-6)]GlcNAc", "method_in_brief": "(§1)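 From the Consortium for Functional Glycomics database, 3228 arrays were curated, keeping only those whose protein sequence was available. Binding is given as a within-array Z-score averaged across arrays sharing a protein sequence and across linkers. Negative Z-scores can be read as non-binding.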"}, "[2]": {"target": "Gal(b1-3)GlcNAc(b1-3)Gal(b1-4)GlcNAc(b1-3)Gal(b1-4)GlcNAc(b1-2)[Gal(b1-3)GlcNAc(b1-3)Gal(b1-4)GlcNAc(b1-3)Gal(b1-4)GlcNAc(b1-6)]Man(a1-6)[Gal(b1-3)GlcNAc(b1-3)Gal(b1-4)GlcNAc(b1-3)Gal(b1-4)GlcNAc(b1-2)Man(a1-3)]Man(b1-4)GlcNAc(b1-4)[Fuc(a1-6)]GlcNAc", "method_in_brief": "as §1"}, "[3]": {"target": "Gal(b1-3)GlcNAc(b1-3)Gal(b1-4)GlcNAc(b1-6)[Gal(b1-3)GlcNAc(b1-3)]Gal(b1-4)Glc", "method_in_brief": "as §1"}, "[4]": {"target": "Gal(b1-3)GlcNAc(b1-3)Gal(b1-4)[Fuc(a1-3)]GlcNAc", "method_in_brief": "as §1"}, "[5]": {"target": "Gal(b1-3)GlcNAc(b1-3)Gal(b1-4)[Fuc(a1-3)]GlcNAc(b1-6)[Gal(b1-3)GlcNAc(b1-3)]Gal(b1-4)Glc", "method_in_brief": "as §1"}, "[6]": {"target": "Gal(b1-3)GlcNAc(b1-3)GalNAc", "method_in_brief": "as §1"}, "[7]": {"target": "Gal(b1-3)GlcNAc(b1-6)Gal(b1-4)GlcNAc", "method_in_brief": "as §1"}, "[8]": {"target": "Gal(b1-3)GlcNAc(b1-6)GalNAc", "method_in_brief": "as §1"}, "[9]": {"target": "Gal(b1-3)GlcNAc(b1-6)[Gal(b1-3)]GalNAc", "method_in_brief": "as §1"}, "Gal(b1-3)GlcNAc6S": {"target": "Gal(b1-3)GlcNAc6S", "method_in_brief": "as §1"}, "[10]": {"target": "Gal(b1-3)[Fuc(a1-4)]GlcNAc", "method_in_brief": "as §1"}, "[11]": {"target": "Gal(b1-3)[Fuc(a1-4)]GlcNAc(b1-2)Man", "method_in_brief": "as §1"}, "[12]": {"target": "Gal(b1-3)[Fuc(a1-4)]GlcNAc(b1-2)Man(a1-3)[Gal(b1-3)[Fuc(a1-4)]GlcNAc(b1-2)Man(a1-6)]Man(b1-4)GlcNAc(b1-4)[Fuc(a1-6)]GlcNAc", "method_in_brief": "as §1"}, "[13]": {"target": "Gal(b1-3)[Fuc(a1-4)]GlcNAc(b1-3)Gal(b1-3)[Fuc(a1-4)]GlcNAc", "method_in_brief": "as §1"}, "[14]": {"target": "Gal(b1-3)[Fuc(a1-4)]GlcNAc(b1-3)Gal(b1-4)[Fuc(a1-3)]GlcNAc", "method_in_brief": "as §1"}, "[15]": {"target": "Gal(b1-3)[Fuc(a1-4)]GlcNAc(b1-6)GalNAc", "method_in_brief": "as §1"}, "[16]": {"target": "Gal(b1-3)[GlcNAc(b1-6)]GalNAc", "method_in_brief": "as §1"}, "[17]": {"target": "Gal(b1-3)[Neu5Ac(a2-6)]GalNAc", "method_in_brief": "as §1"}, "[18]": {"target": "Gal(b1-3)[Neu5Ac(a2-6)]GlcNAc(b1-4)Gal(b1-4)Glc", "method_in_brief": "as §1"}, "[19]": {"target": "Gal(b1-3)[Neu5Ac(b2-6)]GalNAc", "method_in_brief": "as §1"}, "Gal(b1-4)Gal": {"target": "Gal(b1-4)Gal", "method_in_brief": "as §1"}, "[20]": {"target": "Gal(b1-4)GalNAc(a1-3)[Fuc(a1-2)]Gal(b1-4)GlcNAc", "method_in_brief": "as §1"}, "[21]": {"target": "Gal(b1-4)GalNAc(b1-3)[Fuc(a1-2)]Gal(b1-4)GlcNAc", "method_in_brief": "as §1"}, "Gal(b1-4)Glc": {"target": "Gal(b1-4)Glc", "method_in_brief": "as §1"}, "Gal(b1-4)Glc6S": {"target": "Gal(b1-4)Glc6S", "method_in_brief": "as §1"}, "Gal(b1-4)GlcNAc": {"target": "Gal(b1-4)GlcNAc", "method_in_brief": "as §1"}, "[22]": {"target": "Gal(b1-4)GlcNAc(a1-6)Gal(b1-4)GlcNAc", "method_in_brief": "as §1"}, "Gal(b1-4)GlcNAc(b1-2)Man": {"target": "Gal(b1-4)GlcNAc(b1-2)Man", "method_in_brief": "as §1"}, "[23]": {"target": "Gal(b1-4)GlcNAc(b1-2)Man(a1-3)Man(b1-4)GlcNAc(b1-4)GlcNAc", "method_in_brief": "as §1"}, "[24]": {"target": "Gal(b1-4)GlcNAc(b1-2)Man(a1-3)[Gal(b1-4)GlcNAc(b1-2)Man(a1-6)]Man(b1-4)GlcNAc(b1-4)GlcNAc", "method_in_brief": "as §1"}, "[25]": {"target": "Gal(b1-4)GlcNAc(b1-2)Man(a1-3)[Gal(b1-4)GlcNAc(b1-2)Man(a1-6)]Man(b1-4)GlcNAc(b1-4)[Fuc(a1-6)]GlcNAc", "method_in_brief": "as §1"}, "[26]": {"target": "Gal(b1-4)GlcNAc(b1-2)Man(a1-3)[Gal(b1-4)GlcNAc(b1-2)Man(a1-6)][Gal(b1-4)GlcNAc(b1-4)]Man(b1-4)GlcNAc(b1-4)[Fuc(a1-6)]GlcNAc", "method_in_brief": "as §1"}, "[27]": {"target": "Gal(b1-4)GlcNAc(b1-2)Man(a1-3)[Gal(b1-4)GlcNAc(b1-2)Man(a1-6)][GlcNAc(b1-4)]Man(b1-4)GlcNAc(b1-4)[Fuc(a1-6)]GlcNAc", "method_in_brief": "as §1"}, "[28]": {"target": "Gal(b1-4)GlcNAc(b1-2)Man(a1-3)[GlcNAc(b1-2)Man(a1-6)]Man(b1-4)GlcNAc(b1-4)GlcNAc", "method_in_brief": "as §1"}, "[29]": {"target": "Gal(b1-4)GlcNAc(b1-2)Man(a1-3)[GlcNAc(b1-4)][Gal(b1-4)GlcNAc(b1-2)Man(a1-6)]Man(b1-4)GlcNAc(b1-4)GlcNAc", "method_in_brief": "as §1"}, "[30]": {"target": "Gal(b1-4)GlcNAc(b1-2)Man(a1-3)[Man(a1-6)]Man(b1-4)GlcNAc(b1-4)GlcNAc", "method_in_brief": "as §1"}, "[31]": {"target": "Gal(b1-4)GlcNAc(b1-2)Man(a1-6)Man(b1-4)GlcNAc(b1-4)GlcNAc", "method_in_brief": "as §1"}, "[32]": {"target": "Gal(b1-4)GlcNAc(b1-2)Man(a1-6)[GlcNAc(b1-2)Man(a1-3)]Man(b1-4)GlcNAc(b1-4)GlcNAc", "method_in_brief": "as §1"}}, "note": "Some of the results follow."}
{"binder": "AntigenI/IIC123 (Streptococcus mutans), C9E3B4 (protein) MASMTGGQQMGRIHFHYFKLAVQPQVNKEIRNNNDINIDRTLVAKQSVVKFQLKTADLPAGRDETTSFVLVDPLPSGYQFNPEATKAASPGFDVTYDNATNTVTFKATAATLATFNADLTKSVATIYPTVVGQVLNDGATYKNNFTLTVNDAYGIKSNVVRVTTPGKPNDPDNPNNNYIKPTKVNKNENGVVIDGKTVLAGSTNYYELTWDLDQYKNDRSSADTIQKGFYYVDDYPEEALELRQDLVKITDANGNEVTGVSVDNYTNLEAAPQEIRDVLSKAGIRPKGAFQIFRADNPREFYDTYVKTGIDLKIVSPMVVKKQMGQTGGSYENQAYQIDFGNGYASNIIINNVPKINPKKDVTLTLDPADTNNVDGQTIPLNTVFNYRLIGGIIPADHSEELFEYNFYDDYDQTGDHYTGQYKVFAKVDITFKDGSIIKSGAELTQYTTAEVDTAKGAITIKFKEAFLRSVSIDSAFQAESYIQMKRIAVGTFENTYINTVNGVTYSSLEHHHHHH", "values": [{"measurement": "glycan array binding signal (z-score)", "setting": "[1]", "result": 1.32}, {"measurement": "glycan array binding signal (z-score)", "setting": "[2]", "result": 1.18}, {"measurement": "glycan array binding signal (z-score)", "setting": "[3]", "result": -0.366}, {"measurement": "glycan array binding signal (z-score)", "setting": "[4]", "result": -0.941}, {"measurement": "glycan array binding signal (z-score)", "setting": "[5]", "result": -0.418}, {"measurement": "glycan array binding signal (z-score)", "setting": "[6]", "result": -0.623}, {"measurement": "glycan array binding signal (z-score)", "setting": "[7]", "result": -0.051}, {"measurement": "glycan array binding signal (z-score)", "setting": "[8]", "result": -0.118}, {"measurement": "glycan array binding signal (z-score)", "setting": "[9]", "result": 0.941}, {"measurement": "glycan array binding signal (z-score)", "setting": "Gal(b1-3)GlcNAc6S", "result": -0.331}, {"measurement": "glycan array binding signal (z-score)", "setting": "[10]", "result": -0.616}, {"measurement": "glycan array binding signal (z-score)", "setting": "[11]", "result": 0.022}, {"measurement": "glycan array binding signal (z-score)", "setting": "[12]", "result": -0.554}, {"measurement": "glycan array binding signal (z-score)", "setting": "[13]", "result": 0.036}, {"measurement": "glycan array binding signal (z-score)", "setting": "[14]", "result": -0.913}, {"measurement": "glycan array binding signal (z-score)", "setting": "[15]", "result": 1.06}, {"measurement": "glycan array binding signal (z-score)", "setting": "[16]", "result": 0.715}, {"measurement": "glycan array binding signal (z-score)", "setting": "[17]", "result": -0.159}, {"measurement": "glycan array binding signal (z-score)", "setting": "[18]", "result": -0.539}, {"measurement": "glycan array binding signal (z-score)", "setting": "[19]", "result": -0.106}, {"measurement": "glycan array binding signal (z-score)", "setting": "Gal(b1-4)Gal", "result": -0.081}, {"measurement": "glycan array binding signal (z-score)", "setting": "[20]", "result": -0.864}, {"measurement": "glycan array binding signal (z-score)", "setting": "[21]", "result": -0.567}, {"measurement": "glycan array binding signal (z-score)", "setting": "Gal(b1-4)Glc", "result": -0.194}, {"measurement": "glycan array binding signal (z-score)", "setting": "Gal(b1-4)Glc6S", "result": 0.662}, {"measurement": "glycan array binding signal (z-score)", "setting": "Gal(b1-4)GlcNAc", "result": -0.786}, {"measurement": "glycan array binding signal (z-score)", "setting": "[22]", "result": -0.039}, {"measurement": "glycan array binding signal (z-score)", "setting": "Gal(b1-4)GlcNAc(b1-2)Man", "result": 0.057}, {"measurement": "glycan array binding signal (z-score)", "setting": "[23]", "result": -0.281}, {"measurement": "glycan array binding signal (z-score)", "setting": "[24]", "result": -0.463}, {"measurement": "glycan array binding signal (z-score)", "setting": "[25]", "result": 0.3}, {"measurement": "glycan array binding signal (z-score)", "setting": "[26]", "result": 2.65}, {"measurement": "glycan array binding signal (z-score)", "setting": "[27]", "result": -1.3}, {"measurement": "glycan array binding signal (z-score)", "setting": "[28]", "result": -0.939}, {"measurement": "glycan array binding signal (z-score)", "setting": "[29]", "result": -0.86}, {"measurement": "glycan array binding signal (z-score)", "setting": "[30]", "result": -1.01}, {"measurement": "glycan array binding signal (z-score)", "setting": "[31]", "result": -0.141}, {"measurement": "glycan array binding signal (z-score)", "setting": "[32]", "result": -1.29}]}
